Measured values as given in publication PMC4924668.
Results are given in words; binding and its absence hold for the method and conditions named. Binding seen in cells or lysates may run through a third protein. Some binding calls cover weakened binding; strength is not graded here. Tags and fused reporters may be left off the sequences shown.

Sequences of proteins named here, by UniProt entry; tags and fusion partners are left off.
UniProt P49841: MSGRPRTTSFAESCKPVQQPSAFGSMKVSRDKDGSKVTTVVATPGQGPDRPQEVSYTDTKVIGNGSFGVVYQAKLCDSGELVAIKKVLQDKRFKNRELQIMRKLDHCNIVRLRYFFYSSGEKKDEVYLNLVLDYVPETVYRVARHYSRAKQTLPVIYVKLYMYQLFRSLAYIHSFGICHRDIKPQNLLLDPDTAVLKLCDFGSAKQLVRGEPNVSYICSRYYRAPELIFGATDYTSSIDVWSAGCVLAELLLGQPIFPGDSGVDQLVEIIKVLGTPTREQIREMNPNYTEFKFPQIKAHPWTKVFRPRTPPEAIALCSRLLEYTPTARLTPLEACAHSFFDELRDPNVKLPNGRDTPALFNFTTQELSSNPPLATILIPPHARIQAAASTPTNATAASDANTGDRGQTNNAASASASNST

Target: T1, Flag-tagged human IL-17 receptor A (Flag-IL-17RA) (human) (UniProt Q96F46)
T1 sequence: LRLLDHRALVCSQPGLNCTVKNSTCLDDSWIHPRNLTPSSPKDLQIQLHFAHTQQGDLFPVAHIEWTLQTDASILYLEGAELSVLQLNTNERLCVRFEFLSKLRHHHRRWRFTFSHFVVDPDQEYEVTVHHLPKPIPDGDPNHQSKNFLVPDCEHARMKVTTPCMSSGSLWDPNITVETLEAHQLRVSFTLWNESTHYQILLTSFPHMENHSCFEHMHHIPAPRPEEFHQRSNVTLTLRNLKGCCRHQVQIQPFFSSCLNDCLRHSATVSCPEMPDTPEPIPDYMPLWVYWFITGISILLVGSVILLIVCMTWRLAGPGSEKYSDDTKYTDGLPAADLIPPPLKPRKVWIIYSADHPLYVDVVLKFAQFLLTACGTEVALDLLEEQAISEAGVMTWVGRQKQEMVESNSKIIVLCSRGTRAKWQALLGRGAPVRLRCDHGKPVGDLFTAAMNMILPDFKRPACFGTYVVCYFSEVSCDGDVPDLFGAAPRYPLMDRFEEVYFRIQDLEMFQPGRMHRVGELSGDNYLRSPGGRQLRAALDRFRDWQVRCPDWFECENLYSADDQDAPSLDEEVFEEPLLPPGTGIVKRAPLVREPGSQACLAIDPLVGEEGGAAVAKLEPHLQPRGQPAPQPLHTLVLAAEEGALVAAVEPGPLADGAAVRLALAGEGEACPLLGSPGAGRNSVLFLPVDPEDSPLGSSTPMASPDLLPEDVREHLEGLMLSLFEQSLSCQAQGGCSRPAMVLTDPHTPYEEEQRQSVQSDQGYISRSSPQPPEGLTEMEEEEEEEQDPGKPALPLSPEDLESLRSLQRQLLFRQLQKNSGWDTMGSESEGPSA
Assay: co-IP; 293 cells transfected or co-transfected, RIPA lysates; ANTI-FLAG M2 Affinity Gel or primary antibody plus protein A sepharose overnight at 4°C, washed 3 times with PBS; IB

Row | binding | Substance
1 | binds | GSK3β found in the anti-Flag precipitate of 293 cells transfected with Flag-IL-17RA (from UniProt P49841 1-420) (enzyme)
2 | binds | HA-tagged GSK3β (HA-GSK3β), wild type (from UniProt P49841 1-420) (enzyme)
